Source: paper PMC3818319

Protein sequences, listed by entry. Tags and fused reporters are not part of them. Lines headed by an entry give the natural chain unless they say otherwise; changes in a name come on top.
UniProt Q9VB11: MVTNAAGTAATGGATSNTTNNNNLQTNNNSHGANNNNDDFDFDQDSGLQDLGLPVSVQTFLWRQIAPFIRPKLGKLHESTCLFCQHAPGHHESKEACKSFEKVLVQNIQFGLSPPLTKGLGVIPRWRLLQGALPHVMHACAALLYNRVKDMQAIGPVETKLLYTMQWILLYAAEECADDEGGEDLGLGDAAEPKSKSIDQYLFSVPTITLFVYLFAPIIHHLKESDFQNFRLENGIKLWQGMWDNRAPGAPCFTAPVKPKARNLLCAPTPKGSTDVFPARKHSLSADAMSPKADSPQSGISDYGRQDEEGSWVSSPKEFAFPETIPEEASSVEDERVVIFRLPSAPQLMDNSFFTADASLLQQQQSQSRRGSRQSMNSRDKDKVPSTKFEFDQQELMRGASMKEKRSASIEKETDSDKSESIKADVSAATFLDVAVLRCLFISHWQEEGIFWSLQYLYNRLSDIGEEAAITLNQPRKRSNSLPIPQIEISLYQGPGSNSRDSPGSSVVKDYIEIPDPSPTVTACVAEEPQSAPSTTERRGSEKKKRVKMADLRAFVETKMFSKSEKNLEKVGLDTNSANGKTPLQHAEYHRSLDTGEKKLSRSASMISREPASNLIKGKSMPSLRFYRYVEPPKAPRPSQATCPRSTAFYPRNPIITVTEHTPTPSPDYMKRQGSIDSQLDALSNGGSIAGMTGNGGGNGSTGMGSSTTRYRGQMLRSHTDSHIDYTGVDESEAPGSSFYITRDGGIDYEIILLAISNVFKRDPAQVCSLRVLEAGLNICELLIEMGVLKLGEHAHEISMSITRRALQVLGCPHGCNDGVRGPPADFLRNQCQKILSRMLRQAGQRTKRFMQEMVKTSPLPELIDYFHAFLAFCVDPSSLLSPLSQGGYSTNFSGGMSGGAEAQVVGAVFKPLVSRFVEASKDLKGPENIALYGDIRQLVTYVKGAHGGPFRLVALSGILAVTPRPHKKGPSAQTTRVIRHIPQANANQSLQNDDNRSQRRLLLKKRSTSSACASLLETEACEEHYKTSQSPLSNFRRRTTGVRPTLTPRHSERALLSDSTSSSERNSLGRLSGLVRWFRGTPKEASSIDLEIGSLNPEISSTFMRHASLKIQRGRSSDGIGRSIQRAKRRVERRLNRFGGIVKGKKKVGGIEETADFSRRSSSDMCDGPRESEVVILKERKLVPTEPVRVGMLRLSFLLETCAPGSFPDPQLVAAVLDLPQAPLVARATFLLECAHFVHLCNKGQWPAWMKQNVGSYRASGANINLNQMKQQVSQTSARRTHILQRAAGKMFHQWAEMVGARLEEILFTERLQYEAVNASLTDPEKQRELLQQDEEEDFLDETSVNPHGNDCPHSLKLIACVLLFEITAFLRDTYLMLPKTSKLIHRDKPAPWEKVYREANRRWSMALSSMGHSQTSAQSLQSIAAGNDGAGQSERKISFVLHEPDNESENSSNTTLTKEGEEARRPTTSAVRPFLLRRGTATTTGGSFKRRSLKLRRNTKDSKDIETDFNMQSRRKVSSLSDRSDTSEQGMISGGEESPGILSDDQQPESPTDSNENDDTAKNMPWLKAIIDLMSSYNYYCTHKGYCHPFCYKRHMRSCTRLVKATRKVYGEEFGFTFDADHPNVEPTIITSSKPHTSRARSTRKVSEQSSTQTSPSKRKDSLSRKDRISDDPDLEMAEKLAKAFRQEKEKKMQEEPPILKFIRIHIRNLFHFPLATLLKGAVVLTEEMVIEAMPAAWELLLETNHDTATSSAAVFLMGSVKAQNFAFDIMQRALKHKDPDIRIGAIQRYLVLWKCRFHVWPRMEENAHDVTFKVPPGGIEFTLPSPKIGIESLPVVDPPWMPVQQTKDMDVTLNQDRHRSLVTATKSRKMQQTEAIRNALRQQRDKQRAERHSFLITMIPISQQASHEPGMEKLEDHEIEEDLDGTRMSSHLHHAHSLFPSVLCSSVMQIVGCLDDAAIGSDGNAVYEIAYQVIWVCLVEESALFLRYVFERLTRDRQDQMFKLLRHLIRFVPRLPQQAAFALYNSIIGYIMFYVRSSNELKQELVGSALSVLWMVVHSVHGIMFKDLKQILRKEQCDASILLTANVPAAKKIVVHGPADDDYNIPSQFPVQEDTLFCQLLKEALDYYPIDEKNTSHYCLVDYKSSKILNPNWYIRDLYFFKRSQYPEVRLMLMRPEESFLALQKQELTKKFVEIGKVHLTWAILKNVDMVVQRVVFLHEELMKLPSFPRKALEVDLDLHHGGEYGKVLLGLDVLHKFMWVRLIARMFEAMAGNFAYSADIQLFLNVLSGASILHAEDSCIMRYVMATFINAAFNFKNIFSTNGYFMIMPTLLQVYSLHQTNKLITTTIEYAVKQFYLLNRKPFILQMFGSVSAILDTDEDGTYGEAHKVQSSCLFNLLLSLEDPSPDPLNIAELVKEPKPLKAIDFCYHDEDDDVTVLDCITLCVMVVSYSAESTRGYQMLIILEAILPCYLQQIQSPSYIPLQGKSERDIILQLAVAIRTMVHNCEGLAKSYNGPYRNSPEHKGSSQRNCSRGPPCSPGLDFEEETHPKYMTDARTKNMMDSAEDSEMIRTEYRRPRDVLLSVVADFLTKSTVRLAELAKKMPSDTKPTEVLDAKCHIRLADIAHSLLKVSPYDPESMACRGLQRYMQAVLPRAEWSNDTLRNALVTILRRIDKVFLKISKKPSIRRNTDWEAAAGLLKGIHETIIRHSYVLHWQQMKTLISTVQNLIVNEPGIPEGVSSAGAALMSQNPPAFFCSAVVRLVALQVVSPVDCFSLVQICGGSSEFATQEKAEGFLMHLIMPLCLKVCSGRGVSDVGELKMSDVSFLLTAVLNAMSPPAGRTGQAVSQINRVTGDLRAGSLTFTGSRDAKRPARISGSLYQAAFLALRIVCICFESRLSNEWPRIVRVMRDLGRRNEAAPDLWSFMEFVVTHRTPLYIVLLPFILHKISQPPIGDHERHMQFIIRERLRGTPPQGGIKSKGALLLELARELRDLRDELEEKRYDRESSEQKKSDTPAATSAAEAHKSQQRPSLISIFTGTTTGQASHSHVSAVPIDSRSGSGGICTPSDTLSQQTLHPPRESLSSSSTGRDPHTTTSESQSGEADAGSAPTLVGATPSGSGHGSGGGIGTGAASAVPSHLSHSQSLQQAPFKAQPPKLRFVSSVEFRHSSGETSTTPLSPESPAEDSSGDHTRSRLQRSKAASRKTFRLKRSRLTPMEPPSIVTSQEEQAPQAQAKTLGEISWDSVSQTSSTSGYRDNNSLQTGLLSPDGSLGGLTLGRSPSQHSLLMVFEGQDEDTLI
UniProt E1JIP9: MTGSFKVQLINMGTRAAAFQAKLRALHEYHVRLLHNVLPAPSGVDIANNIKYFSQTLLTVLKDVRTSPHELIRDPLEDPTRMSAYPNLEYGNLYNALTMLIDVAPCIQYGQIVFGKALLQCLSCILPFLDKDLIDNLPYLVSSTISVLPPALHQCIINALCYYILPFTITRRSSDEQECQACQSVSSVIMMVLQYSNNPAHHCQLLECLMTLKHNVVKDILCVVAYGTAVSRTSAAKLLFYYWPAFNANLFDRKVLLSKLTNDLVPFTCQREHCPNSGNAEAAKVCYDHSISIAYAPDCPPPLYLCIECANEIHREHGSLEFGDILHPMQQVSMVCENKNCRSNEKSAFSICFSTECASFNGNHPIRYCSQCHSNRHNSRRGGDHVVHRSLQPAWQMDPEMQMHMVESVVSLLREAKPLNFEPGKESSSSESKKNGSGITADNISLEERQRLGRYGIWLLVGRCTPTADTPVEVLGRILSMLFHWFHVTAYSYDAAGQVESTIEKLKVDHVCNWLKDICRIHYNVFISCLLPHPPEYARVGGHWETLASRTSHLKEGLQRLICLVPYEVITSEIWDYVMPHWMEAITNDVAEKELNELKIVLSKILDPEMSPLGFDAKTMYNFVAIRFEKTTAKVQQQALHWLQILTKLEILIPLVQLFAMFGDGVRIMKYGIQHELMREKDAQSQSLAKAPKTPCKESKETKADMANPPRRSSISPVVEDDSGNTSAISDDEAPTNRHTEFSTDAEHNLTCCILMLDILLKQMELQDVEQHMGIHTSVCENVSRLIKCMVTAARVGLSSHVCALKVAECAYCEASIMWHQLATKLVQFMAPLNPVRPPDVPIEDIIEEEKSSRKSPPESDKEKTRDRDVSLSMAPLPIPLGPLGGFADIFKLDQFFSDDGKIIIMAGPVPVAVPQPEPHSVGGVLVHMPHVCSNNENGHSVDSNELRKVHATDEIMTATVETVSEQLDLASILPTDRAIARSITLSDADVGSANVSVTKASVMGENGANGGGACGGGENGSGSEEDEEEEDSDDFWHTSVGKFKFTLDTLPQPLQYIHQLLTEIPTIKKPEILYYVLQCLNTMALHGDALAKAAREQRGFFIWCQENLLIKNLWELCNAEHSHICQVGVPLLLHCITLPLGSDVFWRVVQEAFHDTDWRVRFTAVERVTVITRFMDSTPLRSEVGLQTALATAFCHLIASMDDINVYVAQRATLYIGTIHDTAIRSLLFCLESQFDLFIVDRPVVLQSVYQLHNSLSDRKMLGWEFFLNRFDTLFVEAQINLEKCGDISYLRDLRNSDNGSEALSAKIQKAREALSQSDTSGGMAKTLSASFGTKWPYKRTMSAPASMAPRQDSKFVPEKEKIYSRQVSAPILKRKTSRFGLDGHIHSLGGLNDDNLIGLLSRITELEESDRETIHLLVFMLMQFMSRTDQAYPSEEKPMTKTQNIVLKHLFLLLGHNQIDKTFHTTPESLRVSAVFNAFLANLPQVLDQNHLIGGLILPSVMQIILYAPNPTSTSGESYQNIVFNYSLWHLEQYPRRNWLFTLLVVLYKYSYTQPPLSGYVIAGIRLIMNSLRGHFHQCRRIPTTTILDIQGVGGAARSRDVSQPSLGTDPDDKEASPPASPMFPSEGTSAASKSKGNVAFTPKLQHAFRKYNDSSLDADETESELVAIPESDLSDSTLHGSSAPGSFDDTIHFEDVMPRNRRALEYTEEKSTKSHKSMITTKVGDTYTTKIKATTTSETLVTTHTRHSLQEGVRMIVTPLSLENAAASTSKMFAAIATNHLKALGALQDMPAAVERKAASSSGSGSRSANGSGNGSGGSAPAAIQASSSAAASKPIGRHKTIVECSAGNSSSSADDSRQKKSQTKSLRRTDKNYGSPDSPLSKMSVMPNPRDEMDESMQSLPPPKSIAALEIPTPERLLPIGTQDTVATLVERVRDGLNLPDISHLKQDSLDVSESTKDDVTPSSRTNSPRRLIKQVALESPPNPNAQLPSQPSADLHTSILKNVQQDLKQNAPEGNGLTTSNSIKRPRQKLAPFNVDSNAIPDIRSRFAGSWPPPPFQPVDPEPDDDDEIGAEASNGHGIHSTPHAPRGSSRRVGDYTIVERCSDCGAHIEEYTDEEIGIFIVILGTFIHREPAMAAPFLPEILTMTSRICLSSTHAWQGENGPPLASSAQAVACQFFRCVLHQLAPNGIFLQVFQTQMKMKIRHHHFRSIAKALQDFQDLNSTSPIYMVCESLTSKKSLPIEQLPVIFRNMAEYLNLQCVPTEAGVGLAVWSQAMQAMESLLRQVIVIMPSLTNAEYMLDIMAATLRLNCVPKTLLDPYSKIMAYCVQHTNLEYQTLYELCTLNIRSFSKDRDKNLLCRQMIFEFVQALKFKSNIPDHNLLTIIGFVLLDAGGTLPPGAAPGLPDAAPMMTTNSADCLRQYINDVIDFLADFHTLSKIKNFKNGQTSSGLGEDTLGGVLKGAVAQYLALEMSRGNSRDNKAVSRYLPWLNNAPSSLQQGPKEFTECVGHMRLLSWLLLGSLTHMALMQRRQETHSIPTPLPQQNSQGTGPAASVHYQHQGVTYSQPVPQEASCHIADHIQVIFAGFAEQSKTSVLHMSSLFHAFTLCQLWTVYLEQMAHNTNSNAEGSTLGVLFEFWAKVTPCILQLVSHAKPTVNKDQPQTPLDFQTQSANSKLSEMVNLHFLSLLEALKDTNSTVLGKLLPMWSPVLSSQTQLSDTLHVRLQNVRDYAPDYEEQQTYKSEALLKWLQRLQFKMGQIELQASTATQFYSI

Biological target: UNC80 (Drosophila melanogaster (in adult head extracts)) (UniProt Q9VB11)
Experiment: co-IP; membrane preparations of adult Drosophila head extracts, solubilised in 1% n-dodecyl-beta-D-maltopyranoside, 1% Anapoe-58 in 150 mM NaCl, 50 mM Tris pH 7.4, 1 mM EDTA; 2 ul rabbit or mouse antiserum for 1 h at room temperature, Protein-A Sepharose for 1 h at 4 C, three washes with detergents; Western blot

binding: binds
Substance: UNC79 (from UniProt E1JIP9)

Results are given in words; binding and its absence hold for the method and conditions named. In cells and extracts the contact can be indirect. Binding calls can cover weak binding; strength is not graded here.
